{"source": "patent US20140137274A1", "about": "“INDUCED MALIGNANT STEM CELLS” (LSIP, LLC, priority 2011, published 2014)", "molecules": {"B1": {"name": "calreticulin precursor [Homo sapiens] (protein, UniProt P27797 1-417, looked up)", "chain": "MLLSVPLLLGLLGLAVAEPAVYFKEQFLDGDGWTSRWIESKHKSDFGKFVLSSGKFYGDEEKDKGLQTSQDARFYALSASFEPFSNKGQTLVVQFTVKHEQNIDCGGGYVKLFPNSLDQTDMHGDSEYNIMFGPDICGPGTKKVHVIFNYKGKNVLINKDIRCKDDEFTHLYTLIVRPDNTYEVKIDNSQVESGSLEDDWDFLPPKKIKDPDASKPEDWDERAKIDDPTDSKPEDWDKPEHIPDPDAKKPEDWDEEMDGEWEPPVIQNPEYKGEWKPRQIDNPDYKGTWIHPEIDNPEYSPDPSIYAYDNFGVLGLDLWQVKSGTIFDNFLITNDEAYAEEFGNETWGVTKAAEKQMKDKQDEEQRLKEEEEDKKRKEEEEAEDKEDDEDKDEDEEDEEDKEEDEEEDVPGQAKDEL", "modifications": "full-length"}, "B2": {"name": "heat shock protein 60 [Homo sapiens] (protein, UniProt P10809 27-573, looked up)", "60 kDa heat shock protein, …": "AKDVKFGADARALMLQGVDLLADAVAVTMGPKGRTVIIEQSWGSPKVTKDGVTVAKSIDLKDKYKNIGAKLVQDVANNTNEEAGDGTTTATVLARSIAKEGFEKISKGANPVEIRRGVMLAVDAVIAELKKQSKPVTTPEEIAQVATISANGDKEIGNIISDAMKKVGRKGVITVKDGKTLNDELEIIEGMKFDRGYISPYFINTSKGQKCEFQDAYVLLSEKKISSIQSIVPALEIANAHRKPLVIIAEDVDGEALSTLVLNRLKVGLQVVAVKAPGFGDNRKNQLKDMAIATGGAVFGEEGLTLNLEDVQPHDLGKVGEVIVTKDDAMLLKGKGDKAQIEKRIQEIIEQLDVTTSEYEKEKLNERLAKLSDGVAVLKVGGTSDVEVNEKKDRVTDALNATRAAVEEGIVLGGGCALLRCIPALDSLTPANEDQKIGIEIIKRTLKIPAMTIAKNAGVEGSLIVEKIMQSSSEVGYDAMAGDFVNMVEKGIIDPTKVVRTALLDAAGVASLLTTAEVVVTEIPKEEKDPGMGAMGGMGGGMGGGMF"}, "B3": {"name": "ER-60 protein [Homo sapiens] (protein, UniProt P30101 25-505, looked up)", "Protein disulfide-isomerase A3": "SDVLELTDDNFESRISDTGSAGLMLVEFFAPWCGHCKRLAPEYEAAATRLKGIVPLAKVDCTANTNTCNKYGVSGYPTLKIFRDGEEAGAYDGPRTADGIVSHLKKQAGPASVPLRTEEEFKKFISDKDASIVGFFDDSFSEAHSEFLKAASNLRDNYRFAHTNVESLVNEYDDNGEGIILFRPSHLTNKFEDKTVAYTEQKMTSGKIKKFIQENIFGICPHMTEDNKDLIQGKDLLIAYYDVDYEKNAKGSNYWRNRVMMVAKKFLDAGHKLNFAVASRKTFSHELSDFGLESTAGEIPVVAIRTAKGEKFVMQEEFSRDGKALERFLQDYFDGNLKRYLKSEPIPESNDGPVKVVVAENFDEIVNNENKDVLIEFYAPWCGHCKNLEPKYKELGEKLSKDPNIVIAKMDATANDVPSPYEVRGFPTIYFSPANKKLNPKKYEGGRELSDFISYLQREATNPPVIQEEKPKKKKKAQEDL"}, "B4": {"name": "transgelin variant [Homo sapiens] (protein, UniProt Q01995 2-201, looked up)", "Transgelin": "ANKGPSYGMSREVQSKIEKKYDEELEERLVEWIIVQCGPDVGRPDRGRLGFQVWLKNGVILSKLVNSLYPDGSKPVKVPENPPSMVFKQMEQVAQFLKAAEDYGVIKTDMFQTVDLFEGKDMAAVQRTLMALGSLAVTKNDGHYRGDPNWFMKKAQEHKREFTESQLQEGKHVIGLQMGSNRGASQAGMTGYGRPRQIIS"}, "B5": {"name": "Putative elongation factor 1-alpha-like 3 (protein, UniProt Q5VTE0 2-462, looked up)", "Putative elongation factor …": "GKEKTHINIVVIGHVDSGKSTTTGHLIYKCGGIDKRTIEKFEKEAAEMGKGSFKYAWVLDKLKAERERGITIDISLWKFETSKYYVTIIDAPGHRDFIKNMITGTSQADCAVLIVAAGVGEFEAGISKNGQTREHALLAYTLGVKQLIVGVNKMDSTEPPYSQKRYEEIVKEVSTYIKKIGYNPDTVAFVPISGWNGDNMLEPSANMPWFKGWKVTRKDGNASGTTLLEALDCILPPTRPTDKPLRLPLQDVYKIGGIGTVPVGRVETGVLKPGMVVTFAPVNVTTEVKSVEMHHEALSEALPGDNVGFKVKNVSVKDVRRGNVAGDSKNDPPMEAAGFTAQVIILNHPGQISAGYAPVLDCHMAHIACKFAELKEKIDRRSGKKLEDGPKFLKSGDAAIVDMVPGKPMCVESFSDYPPLGRFAVRDMRQTVAVGVIKAVDKKAAGAGKVTKSAQKAQKAK"}, "B6": {"name": "PGK1 [Homo sapiens] (protein, UniProt P00558 2-417, looked up)", "Phosphoglycerate kinase 1": "SLSNKLTLDKLDVKGKRVVMRVDFNVPMKNNQITNNQRIKAAVPSIKFCLDNGAKSVVLMSHLGRPDGVPMPDKYSLEPVAVELKSLLGKDVLFLKDCVGPEVEKACANPAAGSVILLENLRFHVEEEGKGKDASGNKVKAEPAKIEAFRASLSKLGDVYVNDAFGTAHRAHSSMVGVNLPQKAGGFLMKKELNYFAKALESPERPFLAILGGAKVADKIQLINNMLDKVNEMIIGGGMAFTFLKVLNNMEIGTSLFDEEGAKIVKDLMSKAEKNGVKITLPVDFVTADKFDENAKTGQATVASGIPAGWMGLDCGPESSKKYAEAVTRAKQIVWNGPVGVFEWEAFARGTKALMDEVVKATSRGCITIIGGGDTATCCAKWNTEDKVSHVSTGGGASLELLEGKVLPGVDALSNI"}, "B7": {"name": "Keratin 8 [Homo sapiens] (protein, UniProt P05787 1-483, looked up)", "Keratin, type II cytoskeletal …": "MSIRVTQKSYKVSTSGPRAFSSRSYTSGPGSRISSSSFSRVGSSNFRGGLGGGYGGASGMGGITAVTVNQSLLSPLVLEVDPNIQAVRTQEKEQIKTLNNKFASFIDKVRFLEQQNKMLETKWSLLQQQKTARSNMDNMFESYINNLRRQLETLGQEKLKLEAELGNMQGLVEDFKNKYEDEINKRTEMENEFVLIKKDVDEAYMNKVELESRLEGLTDEINFLRQLYEEEIRELQSQISDTSVVLSMDNSRSLDMDSIIAEVKAQYEDIANRSRAEAESMYQIKYEELQSLAGKHGDDLRRTKTEISEMNRNISRLQAEIEGLKGQRASLEAAIADAEQRGELAIKDANAKLSELEAALQRAKQDMARQLREYQELMNVKLALDIEIATYRKLLEGEESRLESGMQNMSIHTKTTSGYAGGLSSAYGGLTSPGLSYSLGSSFGSGAGSSSFSRTSSSRAVVVKKIETRDGKLVSESSDVLPK"}}, "data": [{"tested_on": "endogenous cancer-related proteins", "test": "protein identification analysis (iTRAQ labeling, MALDI TOF/MS)", "set-up": "species or system human", "conditions": "protein amount in cc4-d relative to ncc4 (colon non-cancer tissues, negative control)", "values": [{"molecule": "B1", "Relative quantity (test vs control) Ratio cc4-d/ ncc4": 1.007}, {"molecule": "B2", "Relative quantity (test vs control) Ratio cc4-d/ ncc4": 0.9412}, {"molecule": "B3", "Relative quantity (test vs control) Ratio cc4-d/ ncc4": 1.058}, {"molecule": "B4", "Relative quantity (test vs control) Ratio cc4-d/ ncc4": 0.3872}, {"molecule": "B5", "Relative quantity (test vs control) Ratio cc4-d/ ncc4": 1.073}, {"molecule": "B6", "Relative quantity (test vs control) Ratio cc4-d/ ncc4": 1.225}, {"molecule": "B7", "Relative quantity (test vs control) Ratio cc4-d/ ncc4": 1.614}]}, {"tested_on": "endogenous cancer-related proteins", "test": "protein identification analysis (iTRAQ labeling, MALDI TOF/MS)", "set-up": "species or system human", "conditions": "protein amount in cc4 relative to ncc4 (colon non-cancer tissues, negative control)", "values": [{"molecule": "B1", "Relative quantity (test vs control) Ratio cc4/ ncc4": 0.9834}, {"molecule": "B2", "Relative quantity (test vs control) Ratio cc4/ ncc4": 1.19}, {"molecule": "B3", "Relative quantity (test vs control) Ratio cc4/ ncc4": 1.409}, {"molecule": "B4", "Relative quantity (test vs control) Ratio cc4/ ncc4": 0.2963}, {"molecule": "B5", "Relative quantity (test vs control) Ratio cc4/ ncc4": 1.076}, {"molecule": "B6", "Relative quantity (test vs control) Ratio cc4/ ncc4": 1.137}, {"molecule": "B7", "Relative quantity (test vs control) Ratio cc4/ ncc4": 0.7925}]}]}
